Laboratory results as given in PubChem BioAssay AID504467 (National Center for Advancing Translational Sciences (NCATS), 2011).
The whole screen tested about 330,000 compounds, of which about 7,700 (2.3%) were called active. Inconclusive results, whose numbers are uncertain, are shown with a selection of clear calls. The call rests on the fitted dose curve; in most records, active means well fitted inhibition curve with a large enough effect; inconclusive means small, poorly fitted or top-dose-only effect, or effect the other way; inactive means flat fitted curve, though single readings scatter. Potencies of inconclusive entries are doubtful fits and often do not repeat.

Experiment: qHTS screen for small molecules that inhibit ELG1-dependent DNA repair in human embryonic kidney (HEK293T) cells expressing luciferase-tagged ELG1; further: nearly all actives have a fitted effect of over 55% in size
Conditions: HEK293T ELG1-luciferase reporter, luminescence, 16 h, DNA damage induced by 5-fluorouridine; series mostly up to 46.1 µM
Outline: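 Cells (2,000 per well) received 5-fluorouridine plus test compound or DMSO and were incubated 16 hr at 37 °C, 5% CO2. Luciferase activity was read by luminescence 30 min after ONE-Glo addition; signal suppression marked inhibition of damage-induced ELG1 function.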
Potency means the concentration at half of the fitted maximal effect.

Row | SMILES | Potency
1 | COC(=O)c1sc(-c2ccc(Cl)cc2)cc1N | inconclusive: 13 µM [activator, partial curve]
2 | COc1ccc2nc(-c3ccco3)c(-c3ccco3)nc2c1 | inconclusive: 6.51 µM [activator, partial curve]
3 | O=C(CCN1C(=O)c2ccccc2C1=O)Nc1ccc(-c2nc3ccccc3s2)cc1 | inconclusive: 1.16 µM [activator, full curve]
4 | Cc1ccc2sc(NNC(=O)c3cc(=O)c4ccccc4o3)nc2c1C | inconclusive: 29.1 µM [activator, single point]
5 | c1ccc2c(CCNc3ncnc4nc[nH]c34)c[nH]c2c1 | active: 6.51 µM
6 | COc1ccccc1/C=N/NC(=O)c1ccc(-c2ccccc2)cc1 | inconclusive: 23.1 µM [inhibitor, single point]
7 | Clc1ccc(-c2nnc(C3CCCCC3)o2)cc1 | inconclusive: 14.6 µM [activator, partial curve]
8 | Brc1ccc(-c2noc(C3CCCCC3)n2)cc1 | inconclusive: 20.6 µM [activator, partial curve]
9 | O=C(NCc1cccs1)c1cc(-c2ccccc2)on1 | inconclusive: 8.2 µM [activator, single point]
10 | COC(=O)c1c(C)[nH]c(C(=O)COc2ccc3ccc(=O)oc3c2)c1C | inconclusive: 6.51 µM [inhibitor, partial curve]
11 | OCCSc1nc(-c2ccccc2)nc2ccc(F)cc12 | inconclusive: 32.6 µM [inhibitor, partial curve, poor fit]
12 | NS(=O)(=O)c1ccc(N/C=C\C(=O)c2ccncc2)cc1 | inconclusive: 18.3 µM [activator, single point]
13 | COc1cccc(/C=N/c2nc3ccccc3n2C)c1O | inconclusive: 16.4 µM [activator, single point]
14 | COc1ccccc1CC(=O)Nc1cc(OC)c(NC(=O)c2ccccc2)cc1OC | active: 16.4 µM
15 | CCCC/C(C)=N\NC(=O)CNS(=O)(=O)c1ccc([N+](=O)[O-])cc1 | inconclusive: 0.146 µM [inhibitor, partial curve, poor fit]
16 | Cc1ccc(C)c(C(=O)COC(=O)c2cc([N+](=O)[O-])ccc2NCCO)c1 | inconclusive: 18.4 µM [inhibitor, single point]
17 | CCOc1ccccc1/C=C/c1cc(C(=O)O)c2ccccc2n1 | inconclusive: 14.6 µM [activator, partial curve]
18 | Cc1ccc(NC(=O)Cc2sc(C)nc2-c2ccc(C)cc2)cc1 | inconclusive: 16.4 µM [activator, partial curve, poor fit]
19 | CC(=O)c1ccc(N2CCCCCC2)c(F)c1 | inconclusive: 13 µM [activator, partial curve]
20 | O=C(NCc1ccccc1)C(c1ccccc1)N(Cc1ccc2c(c1)OCO2)C(=O)Cc1cccs1 (stereo unspecified) | active: 16.4 µM
21 | Nc1nn2cc(-c3ccccc3)nc2c2ccccc12 | inconclusive: 6.51 µM [activator, partial curve]
22 | Cc1ccc(Cn2nnc3c(=O)[nH]c(C4CCCN(C(=O)Nc5ccc(F)cc5F)C4)nc32)cc1 (stereo unspecified) | inconclusive: 22.4 µM [inhibitor, single point]

Some of the entries above in a different format:

| Row | SMILES | Potency |
| --- | --- | --- |
| 16 | Cc1ccc(C)c(C(=O)COC(=O)c2cc([N+](=O)[O-])ccc2NCCO)c1 | inconclusive: 18.4 µM [inhibitor, single point] |
| 17 | CCOc1ccccc1/C=C/c1cc(C(=O)O)c2ccccc2n1 | inconclusive: 14.6 µM [activator, partial curve] |
| 18 | Cc1ccc(NC(=O)Cc2sc(C)nc2-c2ccc(C)cc2)cc1 | inconclusive: 16.4 µM [activator, partial curve, poor fit] |

More entries

Row | SMILES | Potency
23 | Cc1ccc(-c2cc(C(=O)Nc3ccc(S(=O)(=O)N4CC(C)OC(C)C4)cc3)[nH]n2)c(O)c1 (stereo unspecified) | inactive
24 | COc1ccc(C2(C)NC(=O)N(CC(=O)Nc3ccc(-c4nc5ccc(C)cc5s4)cc3)C2=O)cc1 (stereo unspecified) | inconclusive: 2.59 µM [activator, partial curve]
25 | COc1ccc(NC(=O)CSc2cc(C)ccc2C)cn1 | inactive
26 | O=S(=O)(NCc1ccccc1)NCc1ccc(Cl)cc1Cl | inactive
27 | COc1cc2c(cc1OC)C1=NC(=O)CN1C(SCc1ccccc1C)=N2 | active: 10.3 µM
28 | Cc1c(OC(C)C(=O)NCC2CCC(C(=O)O)CC2)ccc2c(-c3ccccc3)cc(=O)oc12 (stereo unspecified) | inactive
29 | CCCCCOC(=O)Nc1nnc(CCC)s1 | inconclusive: 18.4 µM [activator, single point]
30 | COc1ccccc1C1CCN(c2cc(O)ccc2[N+](=O)[O-])CC1 | active: 11.6 µM
31 | CCn1c(C)c(C)c2cc(C(=O)NCCCN3CCOCC3)ccc21 | inconclusive: 29.1 µM [activator, single point]
32 | O=C(NCC1CCCO1)c1cccc(S(=O)(=O)N2CCCCC2)c1 (stereo unspecified) | inactive
33 | CN1c2ccc(C=O)c3c(C=O)ccc(c23)N(C)C1(C)C | active: 6.51 µM
34 | O=C(NN=C1CCCC1)c1ccn[nH]1 | inconclusive: 16.4 µM [activator, partial curve, poor fit]
35 | CC(C)(O)C#Cc1ccc(C(=O)Nc2ccc3c(c2)OCO3)s1 | inconclusive: 8.2 µM [activator, partial curve]
36 | Cc1cccc(NC(=O)N2CCc3ccccc3C2)c1C | inconclusive: 18.3 µM [activator, single point]
37 | O=c1c2cc(-c3ccccc3)sc2ncn1-n1cccc1 | inconclusive: 2.59 µM [activator, full curve]
38 | COc1ccc([C@H]2CC(=O)C=C(c3ccc(C(F)(F)F)c(C(F)(F)F)c3)C2)cc1OC | inconclusive: 29.1 µM [inhibitor, single point]
39 | COCCn1c(-c2ccc(OC)cc2)cnc1SCC(=O)Nc1ccc(OC)cc1OC | inconclusive: 18.4 µM [inhibitor, single point]
40 | COc1ccc(NS(=O)(=O)c2cc(C)ccc2NC(=O)c2cc(C)oc2C)cc1 | inconclusive: 5.17 µM [inhibitor, single point]
41 | COCCSc1ccccc1C(=O)Nc1ccc([N+](=O)[O-])cc1OC | inconclusive: 16.4 µM [inhibitor, single point]
42 | Cc1ccnc(NC(=O)c2ccc3c(c2)C(=O)N(CCC(C)C)C3=O)c1 | inconclusive: 23.1 µM [activator, single point]
43 | CC(C)(C)c1ccc(NC(=O)COC(=O)C2CCCC2)cc1 | inconclusive: 20.6 µM [activator, single point]
44 | Cc1ccc2[nH]cc(CCNC(=O)c3ccc([N+](=O)[O-])cc3)c2c1 | inconclusive: 32.6 µM [inhibitor, partial curve, poor fit]

Row | SMILES | Potency
45 | O=C(Nc1ccc(Cl)cc1)NC1CCCc2ccccc21 (stereo unspecified) | inactive
46 | O=C1OC2(CCCC2)OC(=O)C1=Cc1c[nH]c2ccccc12 | inconclusive: 2.31 µM [activator, partial curve]
47 | Cc1ccccc1OCC(=O)Nc1ccc(N2CCN(C)CC2)c(Cl)c1 | inconclusive: 20.6 µM [activator, partial curve]
48 | O=[N+]([O-])c1cc(C(F)(F)F)ccc1NCCc1c[nH]c2ccccc12 | inconclusive: 16.4 µM [activator, single point]
49 | CC(C)CCNC(=O)CSc1nc2ccsc2c(=O)n1NC(=O)c1ccccc1 | inconclusive: 2.31 µM [activator, partial curve, poor fit]
50 | CCCOC1CCCN(C(=O)CCCn2nnnc2CN2CCOCC2)C1 (stereo unspecified) | inconclusive: 14.6 µM [activator, partial curve, poor fit]
51 | COc1ccc(NC(=O)CCN2CCN(Cc3ccccc3)CC2)c(OC)c1 | inconclusive: 17.8 µM [inhibitor, single point]
52 | COc1ccc(NC(=O)c2ccc3nc[nH]c3c2)c(OC)c1 | inconclusive: 6.51 µM [inhibitor, single point]
53 | COc1cccc(-c2csc(NC(=O)C3CC3)n2)c1 | inconclusive: 7.31 µM [activator, partial curve]
54 | COc1ccc(N/N=C(\C#N)C(=N)N2CCCCC2)cc1 | inconclusive: 2.59 µM [activator, full curve]
55 | CCOc1cccc(C(=O)NC(=S)Nc2cccc(C)c2)c1 | inconclusive: 10.3 µM [activator, partial curve]
56 | Fc1cccc(Nc2ncnc3c2cnn3-c2ccccc2)c1 | inconclusive: 11.6 µM [activator, partial curve]
57 | Cc1cc(-c2cn3ccccc3n2)c(C)n1-c1ccccc1 | inconclusive: 4.61 µM [activator, partial curve]
58 | CN(C)c1nc(NS(=O)(=O)c2ccc(Cl)cc2)nc(N(C)C)n1 | inconclusive: 6.51 µM [activator, partial curve, poor fit]
59 | O=C(OCc1ccc(C(=O)c2ccccc2)cc1)c1cccc(-c2nnc(-c3ccccc3)o2)c1 | inactive
60 | Cc1ccc2oc(=O)cc(/C=C/c3ccccc3)c2c1 | inconclusive: 29.1 µM [inhibitor, single point]
61 | CC1CCC(NC(=O)COC(=O)c2n[nH]c(=O)c3ccccc23)CC1 (stereo unspecified) | inconclusive: 0.231 µM [activator, single point]
62 | COc1ccc(N2CCN(C(=O)C3CCCN(S(=O)(=O)c4ccc(C)cc4)C3)CC2)cc1 (stereo unspecified) | active: 20.6 µM
63 | Cc1cc(C)n(-c2nc3c(c(=O)[nH]c(=O)n3C)n2Cc2ccccc2)n1 | inconclusive: 6.51 µM [activator, partial curve, poor fit]
64 | CCOC(=O)C1CCCN(C(=O)c2cc(-c3ccc(F)cc3)nc3ccccc23)C1 (stereo unspecified) | inactive
65 | O=C(COc1ccccc1)Nc1ccc(N2CCN(C(=O)c3ccco3)CC2)cc1 | inconclusive: 23.1 µM [inhibitor, single point]
66 | c1ccc(C(c2ccccc2)N2CCN(Cc3nnnn3C3CCCC3)CC2)cc1 | inconclusive: 3.16 µM [inhibitor, partial curve, poor fit]
